Assay results from the supplement of paper PMC10849652.
Some of the results follow.

Sequences of proteins named here, by UniProt entry; tags and fusion partners are left off. A change or cut given only in a name is not applied to a line headed by its entry.
UniProt Q3KQV9: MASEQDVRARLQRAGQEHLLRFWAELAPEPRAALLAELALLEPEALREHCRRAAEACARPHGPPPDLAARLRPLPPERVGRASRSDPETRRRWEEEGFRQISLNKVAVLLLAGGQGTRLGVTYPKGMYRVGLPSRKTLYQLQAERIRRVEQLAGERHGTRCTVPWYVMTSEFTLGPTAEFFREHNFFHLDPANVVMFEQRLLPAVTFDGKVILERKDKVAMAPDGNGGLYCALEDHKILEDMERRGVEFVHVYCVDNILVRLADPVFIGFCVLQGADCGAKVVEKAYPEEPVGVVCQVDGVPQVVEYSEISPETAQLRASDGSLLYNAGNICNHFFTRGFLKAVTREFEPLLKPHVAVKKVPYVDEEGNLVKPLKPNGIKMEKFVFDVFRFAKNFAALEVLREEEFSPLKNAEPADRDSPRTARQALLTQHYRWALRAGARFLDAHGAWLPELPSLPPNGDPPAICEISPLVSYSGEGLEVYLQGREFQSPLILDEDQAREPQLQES
UniProt Q14157: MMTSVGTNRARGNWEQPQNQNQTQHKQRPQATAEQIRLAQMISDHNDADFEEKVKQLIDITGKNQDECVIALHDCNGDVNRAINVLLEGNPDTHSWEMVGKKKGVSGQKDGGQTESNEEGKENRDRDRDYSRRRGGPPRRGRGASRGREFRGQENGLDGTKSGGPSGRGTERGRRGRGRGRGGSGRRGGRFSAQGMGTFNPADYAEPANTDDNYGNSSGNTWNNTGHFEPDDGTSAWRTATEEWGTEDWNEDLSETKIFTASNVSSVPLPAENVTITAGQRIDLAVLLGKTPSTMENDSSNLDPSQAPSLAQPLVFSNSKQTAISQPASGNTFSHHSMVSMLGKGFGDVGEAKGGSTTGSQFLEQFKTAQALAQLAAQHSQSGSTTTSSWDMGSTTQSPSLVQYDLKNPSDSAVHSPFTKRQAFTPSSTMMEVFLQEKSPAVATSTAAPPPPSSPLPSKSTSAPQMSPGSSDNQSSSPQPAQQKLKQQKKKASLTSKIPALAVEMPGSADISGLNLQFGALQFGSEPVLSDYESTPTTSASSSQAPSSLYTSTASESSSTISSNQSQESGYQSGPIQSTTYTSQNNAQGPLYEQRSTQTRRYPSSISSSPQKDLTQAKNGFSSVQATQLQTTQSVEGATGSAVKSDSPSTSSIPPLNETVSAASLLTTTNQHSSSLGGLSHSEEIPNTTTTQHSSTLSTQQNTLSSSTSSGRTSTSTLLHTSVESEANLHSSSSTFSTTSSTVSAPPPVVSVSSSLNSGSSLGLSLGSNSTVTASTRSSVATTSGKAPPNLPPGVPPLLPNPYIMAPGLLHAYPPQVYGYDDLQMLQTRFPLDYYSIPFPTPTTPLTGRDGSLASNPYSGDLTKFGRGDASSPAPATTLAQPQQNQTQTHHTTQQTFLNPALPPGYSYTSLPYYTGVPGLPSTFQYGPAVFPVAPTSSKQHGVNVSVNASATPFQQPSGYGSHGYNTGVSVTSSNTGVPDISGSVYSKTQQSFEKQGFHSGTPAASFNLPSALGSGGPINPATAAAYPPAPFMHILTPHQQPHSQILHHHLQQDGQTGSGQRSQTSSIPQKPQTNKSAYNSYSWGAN
UniProt P22314: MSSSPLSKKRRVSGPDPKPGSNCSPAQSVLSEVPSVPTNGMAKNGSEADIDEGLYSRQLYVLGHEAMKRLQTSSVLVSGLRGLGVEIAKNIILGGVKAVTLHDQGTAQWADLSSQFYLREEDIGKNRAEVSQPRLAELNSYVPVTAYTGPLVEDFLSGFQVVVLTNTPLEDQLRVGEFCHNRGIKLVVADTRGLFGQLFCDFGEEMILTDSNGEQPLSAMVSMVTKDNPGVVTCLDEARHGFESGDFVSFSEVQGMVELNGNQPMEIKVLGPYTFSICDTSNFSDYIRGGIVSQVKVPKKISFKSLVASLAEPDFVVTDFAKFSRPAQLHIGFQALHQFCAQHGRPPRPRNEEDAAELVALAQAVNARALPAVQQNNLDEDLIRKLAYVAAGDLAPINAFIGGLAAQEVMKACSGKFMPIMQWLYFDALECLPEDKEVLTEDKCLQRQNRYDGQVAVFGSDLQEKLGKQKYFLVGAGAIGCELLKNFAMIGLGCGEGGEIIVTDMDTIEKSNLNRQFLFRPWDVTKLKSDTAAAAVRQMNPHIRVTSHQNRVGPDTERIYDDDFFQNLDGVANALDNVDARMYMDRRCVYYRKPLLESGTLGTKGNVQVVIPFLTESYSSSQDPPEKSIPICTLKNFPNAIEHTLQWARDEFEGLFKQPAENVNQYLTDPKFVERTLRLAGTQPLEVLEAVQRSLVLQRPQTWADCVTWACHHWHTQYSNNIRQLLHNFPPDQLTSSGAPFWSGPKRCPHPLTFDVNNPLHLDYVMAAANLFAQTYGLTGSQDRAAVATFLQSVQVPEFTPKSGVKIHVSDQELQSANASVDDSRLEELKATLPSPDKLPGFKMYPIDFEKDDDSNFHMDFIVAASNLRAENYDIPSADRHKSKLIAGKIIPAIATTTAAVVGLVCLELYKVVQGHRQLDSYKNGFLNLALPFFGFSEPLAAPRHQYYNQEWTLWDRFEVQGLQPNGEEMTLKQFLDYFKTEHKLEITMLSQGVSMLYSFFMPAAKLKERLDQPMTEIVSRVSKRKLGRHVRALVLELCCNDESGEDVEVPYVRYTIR
UniProt Q13454: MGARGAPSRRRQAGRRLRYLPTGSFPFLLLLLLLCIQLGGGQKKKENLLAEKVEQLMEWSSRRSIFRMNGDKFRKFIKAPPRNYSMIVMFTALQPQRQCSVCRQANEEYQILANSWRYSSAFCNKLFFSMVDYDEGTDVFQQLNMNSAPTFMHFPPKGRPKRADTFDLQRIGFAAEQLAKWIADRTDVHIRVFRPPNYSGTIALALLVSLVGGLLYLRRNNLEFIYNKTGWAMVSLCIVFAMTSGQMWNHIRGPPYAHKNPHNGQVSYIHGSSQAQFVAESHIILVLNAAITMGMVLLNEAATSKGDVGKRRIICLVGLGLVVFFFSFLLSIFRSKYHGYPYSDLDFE
UniProt P26368, whole entry, looked up: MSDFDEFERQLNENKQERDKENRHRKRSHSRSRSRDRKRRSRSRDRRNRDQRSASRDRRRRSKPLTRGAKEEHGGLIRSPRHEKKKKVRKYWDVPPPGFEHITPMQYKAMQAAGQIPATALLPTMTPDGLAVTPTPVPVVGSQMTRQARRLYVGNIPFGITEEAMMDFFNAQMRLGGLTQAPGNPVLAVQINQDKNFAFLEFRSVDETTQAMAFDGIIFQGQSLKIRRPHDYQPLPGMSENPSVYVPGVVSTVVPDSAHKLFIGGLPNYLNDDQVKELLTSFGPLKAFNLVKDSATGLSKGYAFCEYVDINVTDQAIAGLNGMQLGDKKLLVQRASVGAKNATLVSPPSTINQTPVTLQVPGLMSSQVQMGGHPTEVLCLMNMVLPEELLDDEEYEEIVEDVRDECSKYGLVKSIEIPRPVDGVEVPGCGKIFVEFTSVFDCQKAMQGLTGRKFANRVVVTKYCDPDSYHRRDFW
UniProt Q8NG68: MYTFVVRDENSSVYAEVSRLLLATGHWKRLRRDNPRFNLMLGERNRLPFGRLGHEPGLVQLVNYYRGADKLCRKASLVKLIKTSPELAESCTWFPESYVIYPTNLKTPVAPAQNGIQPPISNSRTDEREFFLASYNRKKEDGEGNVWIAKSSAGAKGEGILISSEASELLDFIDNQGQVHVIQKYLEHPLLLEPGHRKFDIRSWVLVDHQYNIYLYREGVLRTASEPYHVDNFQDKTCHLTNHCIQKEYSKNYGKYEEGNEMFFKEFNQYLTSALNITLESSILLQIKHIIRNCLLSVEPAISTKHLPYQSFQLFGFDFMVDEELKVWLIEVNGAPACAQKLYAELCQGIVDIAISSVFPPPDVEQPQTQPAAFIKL
UniProt Q9BTX7: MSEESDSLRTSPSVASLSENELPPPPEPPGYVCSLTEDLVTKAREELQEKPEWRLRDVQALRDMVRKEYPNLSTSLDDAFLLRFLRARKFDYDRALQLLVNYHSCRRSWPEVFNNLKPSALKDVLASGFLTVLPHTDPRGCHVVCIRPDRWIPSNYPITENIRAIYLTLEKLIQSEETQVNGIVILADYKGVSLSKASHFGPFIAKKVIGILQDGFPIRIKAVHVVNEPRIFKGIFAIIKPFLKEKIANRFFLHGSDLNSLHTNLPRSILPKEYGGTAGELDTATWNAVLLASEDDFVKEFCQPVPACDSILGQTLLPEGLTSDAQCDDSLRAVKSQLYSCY

Legend:
Assay in all cases: log2 fold change, soluble protein after heating vs DMSO (PISA); higher = thermal stabilisation; K562 cells, 10 uM, 30 min; active = over 0.2 and 3.5 SD of the protein, either way, in both replicates (recomputed)
[1] = compound: C1=CC=C(C=C1)[C@H](COC2=CC3=C(C=C2)NC(=O)N3)NC(=O)C4=CC=CN(C4=O)CC5=CC(=C(C=C5)F)F
Outline: (§1)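 For each measurement, 10 μM compound was applied for 30 min to K562 cells at 2×10^6 cells/mL. Aliquots were heated for 3 min across 48°C-58°C, pooled, and extracted in PBS with 0.5% NP-40 at 4°C; the supernatant after 21,000xg for 90 min was soluble protein. This was quantified by TMTpro 16plex LC-MS/MS with channel sums equalised, and thermal stability was reported relative to control samples from duplicates, on a log2 fold-change scale.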

[2] = compound: CC1=C(SC2=C1C(=N[C@H](C3=NN=C(N32)C)CC(=O)N)C4=CC=C(C=C4)Cl)C
Outline: as §1

[3] = compound: CC1=C2C(=CC=C1)N=C(N(C2=O)C3=CC=CC=C3C)CN4C=NC5=C(N=CN=C54)N
Outline: as §1

[4] = compound: Cc1sc2c(c1C)C(c1ccc(Cl)cc1)=N[C@@H](CC(=O)OC(C)(C)C)c1nnc(C)n1-2
Outline: as §1

[5] = compound: c1ccc([C@@H]2C[C@H]2NC2CCNCC2)cc1
Outline: as §1

Measured: log2 fold change

UAP1L1 (UniProt Q3KQV9)
inactive: [1] -0.033 | [2] 0.134 | [3] 0.034 | [4] 0.034 | [5] 0.002

UBAP2L isoform 1 (UniProt Q14157)
inactive: [1] 0.038 | [2] 0.004 | [3] 0.059 | [4] 0.001 | [5] 0.011

UBAP2L isoform 5 (UniProt Q14157)
inactive: [1] 0.055 | [2] 0.036 | [3] 0 | [4] -0.016 | [5] 0.017

UBA1 (UniProt P22314)
inactive: [1] -0.162 | [2] 0.044 | [3] 0.134 | [4] 0.044 | [5] -0.08

TUBB4A (UniProt M0QYM7)
inactive: [1] -0.091 | [2] 0.184 | [3] 0.378 | [4] 0.178 | [5] -0.059

Retrieved one by one from the entries so far (two):
TUBB4A (UniProt M0QYM7)
inactive: [1] -0.091 | [2] 0.184 | [3] 0.378 | [4] 0.178 | [5] -0.059

UBAP2L isoform 1 (UniProt Q14157)
inactive: [1] 0.038 | [2] 0.004 | [3] 0.059 | [4] 0.001 | [5] 0.011

More results follow.

TUSC3 isoform 2 (UniProt Q13454)
inactive: [1] 0.173 | [2] -0.033 | [3] 0.008 | [4] 0.105 | [5] 0.051

U2AF2 (UniProt P26368)
inactive: [1] -0.004 | [2] 0.057 | [3] 0.045 | [4] 0.044 | [5] 0.005

TTL (UniProt Q8NG68)
inactive: [1] -0.01 | [2] 0.08 | [3] 0.024 | [4] -0.051 | [5] -0.024

TTPAL (UniProt Q9BTX7)
inactive: [1] -0.048 | [2] -0.07 | [3] 0.044 | [4] 0.004 | [5] -0.001
